Each number is a percent effect as filed. The record does not define 0% and 100%; most values in the screen are far below 50% and negative numbers occur (in some assays of this library far below -100). This is an unselected part of the compounds tested. Two or more numbers in one place are separate tests of the same structure; such repeats can differ widely. A dash means the value is not listed here; it may have been measured.

Amino acid sequences for entries named in this document (tags omitted). Residues count along the entry.
UniProt Q8IDJ8, 1-583: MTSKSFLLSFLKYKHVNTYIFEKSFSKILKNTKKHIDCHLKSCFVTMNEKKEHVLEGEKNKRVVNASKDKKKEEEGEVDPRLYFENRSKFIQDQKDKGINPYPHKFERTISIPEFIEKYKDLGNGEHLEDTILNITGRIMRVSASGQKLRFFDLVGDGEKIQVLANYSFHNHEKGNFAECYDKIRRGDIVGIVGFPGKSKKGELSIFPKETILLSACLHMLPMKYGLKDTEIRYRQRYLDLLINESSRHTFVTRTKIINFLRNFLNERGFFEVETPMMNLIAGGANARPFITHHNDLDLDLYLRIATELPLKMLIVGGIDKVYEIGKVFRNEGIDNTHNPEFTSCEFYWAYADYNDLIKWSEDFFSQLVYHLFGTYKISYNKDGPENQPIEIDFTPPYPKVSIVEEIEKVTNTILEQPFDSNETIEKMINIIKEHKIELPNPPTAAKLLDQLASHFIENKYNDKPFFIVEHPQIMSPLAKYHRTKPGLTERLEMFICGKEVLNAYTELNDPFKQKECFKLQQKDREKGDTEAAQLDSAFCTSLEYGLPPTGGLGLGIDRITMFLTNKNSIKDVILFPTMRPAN

Toxoplasma: 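Assay of Toxoplasma gondii numbers, read through their beta-galactosidase reporter with a colour substrate. Tested at 10 µM. The record gives no direction; the compounds picked for IC50 retests had high values, so higher reads as fewer parasites. Of about 67,000 compounds tested this way, about 260 (0.38%) reached 50% or more in at least one test.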
T. brucei: 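Whole-parasite assay of Trypanosoma brucei over 72 hours; the read-out is not stated. Compounds at 30 µM. Direction is inferred from retests: higher values go with stronger inhibition. Values scatter widely below zero; nearly all retest evidence comes from the higher of the two concentrations used. About 64,000 compounds were tested under these conditions; 1.5% (about 940) showed 50% or more at least once.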
Leishmania in macrophages: 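Cell assay of Leishmania donovani living inside macrophages; the read-out is not stated. Concentration: 30 µM. The record gives no direction; compounds that gave an IC50 in retests scored well above the rest, so higher reads as stronger inhibition. About 69,000 compounds were tested under these conditions; 1.5% (about 1,000) showed 50% or more at least once.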
PfKRS1: 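Enzyme assay of the cytosolic lysyl-tRNA synthetase in 384-well plates, read by luminescence. Target: Lysine-tRNA ligase, Plasmodium falciparum 3D7 (UniProt Q8IDJ8). Tested at 30 µM. Direction is inferred from only a few compounds that gave an IC50; most scored high, so higher reads as stronger inhibition. Size under these conditions: about 69,000 compounds, about 49 of them at 50% or above in at least one test.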

SMILES,Toxoplasma,T. brucei,Leishmania in macrophages,PfKRS1
CN(Cc1cccnc1)Cc1cncc2c1CCN(c1ccccn1)C2,-,-,-,0.0964
COc1ccnc(N2CCN(C(=O)Cc3ccc(C)s3)CC2)n1,-5.021,-7.729,31.74,1.513
Cc1noc(C2CCN(C(=O)CN(C)c3ccc(Cl)cn3)CC2)n1,-10.75,-8.788,23.28,-1.43
O=S(=O)(c1cccc(F)c1)N1C[C@@H]2COC[C@]2(COCC2CC2)C1,-,-,-,-0.2987
Cc1cnn(CC2CCCN2C(=O)CCc2c(C)nn(C)c2C)c1 (centres unmarked),-4.414,-12.86,0.02032,0.8989
Cc1nc(CNc2ccc(C(=O)NCc3ccco3)cc2C)no1,2.301,43.82,3.169,5.103
COCCn1cc2c(n1)C(CNCc1ccc(F)cc1)OCC2.O=C(O)C(F)(F)F.O=C(O)C(F)(F)F (centres unmarked),0.8058,-7.774,16.9,-
Cc1csc(N2CCCN(C(=O)CCNc3ncccn3)CC2)n1,16.77,-21.64,16.82,0.5999
COCCCN1C(=O)CC[C@H]2CN(c3cnc4ccccc4n3)CC[C@H]21,-,-,-,2.229
CC(Cn1ccnc1)NC(=O)NCCc1ccc2c(c1)OCCO2 (centres unmarked),4.341,-42.42,-23.24,-0.5912
O=C(O)C(F)(F)F.O=C(O)C(F)(F)F.[H][C@@]12CCN(C(=O)c3ccncc3)CC[C@@]1([H])N(c1cccnc1)CCO2,16.19,-32.14,11.77 and 14.25,-
Cc1csc(CN2CCC(C(=O)O)(n3ccc(-c4ccco4)n3)CC2)n1,-5.636,-63.53,29.58,-3.798
Cc1nn(C)c(Cl)c1C(=O)NCc1cccnc1N1CCOCC1,-29.82,-20.28,13.35,4.027
Cc1occc1C(=O)N1CCC2(CC1)NC(=O)CC2c1cnn(C)c1 (centres unmarked),-0.4841,-,6.354,5.53
CCCn1ncc(CN(Cc2cccnc2)Cc2cccs2)c1C,-,-,30.67,-1.671
O=C(C1CCCO1)N1CCC2(CC1)COCCN(Cc1ccncc1)C2.O=C(O)C(F)(F)F.O=C(O)C(F)(F)F (centres unmarked),-2.783,-26.28,14.9,-
O=C(O)C(F)(F)F.[H][C@@]12COC[C@]1(CNC(=O)N(C)C)CN(Cc1cc(C)on1)C2,1.703,-16.91,-52.53,-
CN1N=C(C(=O)NCc2ccc3c(c2)CCCN3C)CCC1=O,5.118,1.29,38.84,-4.525
COc1cccc(CC(=O)NC(C)c2nc3cccnc3n2C(C)C)c1 (centres unmarked),3.059,-0.8131,-2.028,-0.04558
CC1CCc2n[nH]c(C(=O)N3CCc4c(nc(N(C)C)[nH]c4=O)C3)c2C1 (centres unmarked),0.7654,-23.54,-16.59,1.253
Cc1ccccc1N(CC(=O)NCCc1nnc2n1CCC2)S(C)(=O)=O,0.1836,-7.518,5.782,-0.01107
Cc1ccccc1CCC(=O)N1CCCC(c2cc(C(N)=O)[nH]n2)C1 (centres unmarked),26.17,-15.32,-21.13,-0.07763
CN(C)C(=O)N1CCOCC2(CCN(c3ncccn3)C2)C1 (centres unmarked),-,-,-,1.923
Cc1nc(C(=O)N2CCN(S(C)(=O)=O)CC2)c(-c2ccccc2Cl)s1,13.59,-22.27,3.132 and -14.42,-2.81
Cc1ccc(N2CCCN(C(=O)CC3CCCO3)CC2)nn1 (centres unmarked),-1.436,7.959,19.02,9.247
CC(C)c1nn(C)c(Cl)c1CNCc1cccnc1N(C)C,-,-,-,1.776
COc1ccc(S(=O)(=O)N2CC(CC(=O)O)c3ccccc32)cc1 (centres unmarked),-6.873,-26.74,16.02,1.42
Cn1cccc1CN1CCC2(CC1)CCN(C(=O)c1cnccn1)CC2,-,-,-,-5.769
Cc1ccccc1-n1cc(-c2ccnc(NC(CO)C(C)C)n2)cn1 (centres unmarked),4.435,-13.16,1.127,-4.854
CCS(=O)(=O)N1C[C@@H](c2cc(O)nc(C)n2)[C@H](c2ccccc2F)C1,6.356,-24.98,-5.268,0.2406
CCc1c(C(=O)N2CC(C)OC(C)(C)C2)cnn1-c1ccccn1 (centres unmarked),4.945,-8.978,4.425,3.211
CC(C)NC(=O)c1csc(NC2CC2)n1,-6.725,-15.9,-1.501 and 16.12,3.905
Cc1nc(CNC(=O)N2CCCC(c3ncc[nH]3)C2)sc1C (centres unmarked),-1.299,-16.24,32.53,2.114
Cc1nc(CN2CC3(CCN(c4nccs4)C3)CC2=O)cs1 (centres unmarked),-15.34,-19.25,-34.22,5.243
c1ccc(Sc2ccc3c(c2)OCO3)c(CNC2=NCCN2)c1,-,-,-,0.02286
CN(C)S(=O)(=O)c1ccc(CN2CCCC2c2ccc[nH]2)o1 (centres unmarked),-5.21,-26.59,11.15,0.8139
Cc1sc2nc(CCN)nc(N3CCN(S(C)(=O)=O)CC3)c2c1C,-12.65,-,-0.9568,4.121
CCn1cc(C(=O)N2CCOCC2)cn1,7.308,-20.28,24.24,3.364
O=C(O)C(F)(F)F.[H][C@@]12CCN(c3nncs3)[C@@]1([H])CCN2C(=O)NC1CCCC1,-4.585,-65.66,-6.408,-
CCOc1ccccc1NC(=O)NCCc1ccoc1,-2.693,12.43,9.85,4.38
O=C(O)C(F)(F)F.O=C(O)C(F)(F)F.[H][C@@]12COC[C@@H](CC(=O)N3CCCC3)[C@]1([H])CN(Cc1cccnc1)C2,-13.82,-31.99,-30.89,-
Cc1ccc(S(=O)(=O)NC(C)(C)CN)c(F)c1.Cl,1.07,-44.12,22.92,-
Cc1nn(C)c(C)c1C1CCCN1CC(=O)N(C)c1nccs1 (centres unmarked),14.32,-45.81,15.62,7.933
CNc1cncc(C2CCCN2S(=O)(=O)c2ccccc2)n1 (centres unmarked),-65.85,-14.49,-11.3 and 0.2358,-0.1767
Cc1noc(C)c1CN1CC[C@H]2C[C@H](c3ccncn3)O[C@@H]2C1,-,-,-,5.242
O=C(O)C(=O)O.c1csc(CN2CC(c3nc(-c4cnccn4)no3)C2)c1,8.108,15.53,2.737 and 13.25,-
Cc1cc(C)nc(N2CCCC(Cn3cc(CN(C)C)nn3)C2)n1 (centres unmarked),-0.5618,-15.8,-6.749,0.373
Cc1nnc(CN(C)CC(=O)NCCc2ccc(F)cc2)n1C,26.27,-51.16,-2.792,5.053
O=C(Nc1cccnc1)[C@H]1C[C@@H]2CN(Cc3ccc(F)cc3)C[C@H]1O2,-,-,-,1.299
c1cncc(OCc2n[nH]c3c2CN(Cc2cccs2)C3)c1,-,-,-,1.101
Cc1c(C(=O)NC2CCCOC2)nnn1-c1ccc(Cl)cc1F (centres unmarked),-1.908,-30.18,29.67,4.92
CN(C)C(=O)CCS(=O)(=O)Cc1coc(-c2ccc(F)cc2)n1,10.93,10.94,8.46,-0.2014
Cc1cnc(C(=O)N2CCC(COCc3ccccc3)C2)cn1 (centres unmarked),-2.544,-6.003,-1.182,0.2376
COCc1cc(N2CCOCC2)n2nccc2n1,-3.004,-38.11,28.11,1.985
COC(=O)CNC(=O)CSCc1nc(O)c2c(C)c(C)sc2n1,-4.184,-27.8,-7.575,-1.668
Cc1cccc(NC(=O)N2CCCn3cnc(CN4CCCC4)c3C2)c1.O=C(O)C(F)(F)F,6.101,-6.208,27.64,-
CC(C)C(=O)N1CCN(Cc2cnn(C)c2)CC2(CC(=O)N(C)C2)C1 (centres unmarked),-,-,-,0.9565
Cc1nn(C)c(C)c1C1CCCN1C(=O)c1ccc(C(N)=O)cn1 (centres unmarked),11.81,-,2.286,0.4643
Cc1nc(CNC(=O)NC2CC(C)(C)OC2(C)C)sc1C (centres unmarked),-5.128,-79.32,-24.44,4.919
Cc1cccc(N2CCN(CCCNC(=O)c3nccn3C)CC2)c1,2.36,13.38,40.19,7.358
O=C(c1c2c(N3CCCC3)ncnc2n2ccccc12)N1CCOCC1,1.652,-20.56,1.951,1.871
O=C(NCCNS(=O)(=O)c1ccc2c(c1)CCC2)c1ccccc1,-9.457,8.492,15.59,7.136
[H][C@@]12CNC(=O)[C@H](C)[C@]1([H])CN(Cc1ccccc1)C2,3.59,-2.427,38.23,-
CCOCCn1c(=O)[nH]c2cc(C(=O)N(C)Cc3cc(C)[nH]n3)ccc21,4.714,34.91,12.22,2.864
CCOCC(O)CN1CCN(C(=O)c2ccccc2Cl)CC1 (centres unmarked),-12.7,-20.44,30.99,0.958
O=S(=O)(C1CC1)N1CCc2ncc(Cn3cncn3)n2CC1,-6.892,-,21.27,4.49
CCN(Cc1nc2c(cnn2C)c(=O)[nH]1)c1ccccc1,0.6777,3.085,20.32,2.455

The last 8 entries again:

- Cc1cccc(N2CCN(CCCNC(=O)c3nccn3C)CC2)c1 | Toxoplasma: 2.36%; T. brucei: 13.38%; Leishmania in macrophages: 40.19%; PfKRS1: 7.358%
- O=C(c1c2c(N3CCCC3)ncnc2n2ccccc12)N1CCOCC1 | Toxoplasma: 1.652%; T. brucei: -20.56%; Leishmania in macrophages: 1.951%; PfKRS1: 1.871%
- O=C(NCCNS(=O)(=O)c1ccc2c(c1)CCC2)c1ccccc1 | Toxoplasma: -9.457%; T. brucei: 8.492%; Leishmania in macrophages: 15.59%; PfKRS1: 7.136%
- [H][C@@]12CNC(=O)[C@H](C)[C@]1([H])CN(Cc1ccccc1)C2 | Toxoplasma: 3.59%; T. brucei: -2.427%; Leishmania in macrophages: 38.23%
- CCOCCn1c(=O)[nH]c2cc(C(=O)N(C)Cc3cc(C)[nH]n3)ccc21 | Toxoplasma: 4.714%; T. brucei: 34.91%; Leishmania in macrophages: 12.22%; PfKRS1: 2.864%
- CCOCC(O)CN1CCN(C(=O)c2ccccc2Cl)CC1 (centres unmarked) | Toxoplasma: -12.7%; T. brucei: -20.44%; Leishmania in macrophages: 30.99%; PfKRS1: 0.958%
- O=S(=O)(C1CC1)N1CCc2ncc(Cn3cncn3)n2CC1 | Toxoplasma: -6.892%; Leishmania in macrophages: 21.27%; PfKRS1: 4.49%
- CCN(Cc1nc2c(cnn2C)c(=O)[nH]1)c1ccccc1 | Toxoplasma: 0.6777%; T. brucei: 3.085%; Leishmania in macrophages: 20.32%; PfKRS1: 2.455%

Source: ChEMBL document CHEMBL3988442, “University of Dundee, Small-Polar-MMV Screening Library” (2021).